These are yes or no findings as the source states them, for the method shown.
Biological target: alginate lyase VaAly2 from Vibrio alginolyticus ATCC 17749, without its signal peptide (Vibrio alginolyticus ATCC 17749)
Test: SEC; HiLoad 16/600 Superdex 200 prep-grade column, 50 mM Tris-HCl, 400 mM NaCl, pH 8.0, 1 mL/min; size standards 17, 44, 66 and 158 kDa; both purified

binding: no binding
B1: alginate lyase VaAly2 from Vibrio alginolyticus ATCC 17749, without its signal peptide (enzyme, UniProt A0A2I3CRV5 29-521)
chain: PFPNNQETGADILTPVTITASSHDGNVPEQLFDQDIMTRWSANGDGEWAMLDYGSVYEFDAIQASFSKGNERVSKFDVQFSTDGENWVTVIEGAQSSGRALGLERFQFEPAVKARYVRYVGHGNSKNQWNSVTELAAVNCGINACPASHIITDDVVNAEAAMIAQMKAEQKAQKDLLKKNRKGDFGAPIVRPCETTVTCDLSKAMPYPTLPKEPLATNAPGENFDLTRWKLTTPFDHDKDGRADDIDEWDLANGFQHSDIFYTADDGGMVFKSYVKGARTSENTKYARTELRTMLRAGDKSYSTKGVNPNNWVFSSAPVEDQKEAGGVDGTLEATLKIDHATTTGQSHEVGRFIIGQIHDKDDEPIRLYYRKLPDQPTGTVYFAHEKTKTGTEDYYSLVGDMTGEIGDDGIALGEKFSYIIDVKGNTMTVTVKRDGKDDVVQVVDMSDSGYDEGGRYMYFKAGVYNQNMYGNPDDYAQATFYKLKQSFGKYQG

From publication PMC10811132
